Values from PubChem BioAssay AID652259 (Drosophila RNAi Screening Center, 2013)
The screen tested about 22,000 reagents; below is an unselected part of those with a known target gene and a result. Of all reagents, 233 (1.1%) were called active. 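Light values are raw, unnormalised plate reads; the ratio scores behind the reporter calls were not deposited.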 A number with no mark means an inactive call. A plus sign joins genes that one reagent is predicted to hit. The record does not give: the amount of reagent, the time to read-out, the dose of the treatment.

- Aim: 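Genome-wide hunt for genes that control Wingless pathway activity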 (primary screen)
- System: Drosophila clone 8 imaginal disc epithelial cells
- Reagents: long dsRNA against Drosophila genes
- Challenge: pathway stimulated by co-transfected Wingless expression plasmid
- Detection: 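Firefly luciferase from a tcf-site Wingless reporter, measured alongside co-transfected Renilla luciferase that tracks transfection; pathway stimulated by a Wingless plasmid; the firefly-to-Renilla ratio is not deposited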
- Scale: firefly reporter light: higher = more Wg reporter light, before normalisation; Renilla control light: higher = more transfected or surviving cells
- Hit rule: 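a knock-down is a candidate when at least two out of four statistical tests show it departing from its plate mean; one test alone signals a weak candidate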
- Calls: active = candidate regulator (raises or lowers reporter); inactive = not a candidate

With CCT1 (Chaperonin containing TCP1 subunit 1) [DRSC16877], how do the results read?
firefly reporter light, replicate 1: 37655; Renilla control light, replicate 1: 8408

For yuri (yuri gagarin) [DRSC01453], what does the deposit list?
firefly reporter light, replicate 1: 13260; Renilla control light, replicate 1: 7856

For yuri (yuri gagarin) [DRSC01454], what was measured?
reporter change call, replicate 1: Wg reporter activity raised; firefly reporter light, replicate 1: 27660; Renilla control light, replicate 1: 7433

For yuri (yuri gagarin) [DRSC01943], what does the deposit list?
firefly reporter light, replicate 1: 2834; firefly reporter light, replicate 2: 4908; Renilla control light, replicate 1: 1085; Renilla control light, replicate 2: 2602

With yuri (yuri gagarin) [DRSC01972], how do the results read?
firefly reporter light, replicate 1: 10884; Renilla control light, replicate 1: 3081

For CG11248 [DRSC11644], what was measured?
firefly reporter light, replicate 1: 5728; Renilla control light, replicate 1: 2880

With CG30098 [DRSC05605], what was measured?
firefly reporter light, replicate 1: 16797; Renilla control light, replicate 1: 13187

With CG8646 [DRSC07230], what does the deposit list?
firefly reporter light, replicate 1: 8685; Renilla control light, replicate 1: 1674

Which result is listed for CG42502 + CG10570 [DRSC02071]?
firefly reporter light, replicate 1: 13211; Renilla control light, replicate 1: 3155

How did the screen score CG17217 [DRSC02592]?
firefly reporter light, replicate 1: 3635; firefly reporter light, replicate 2: 6838; Renilla control light, replicate 1: 1398; Renilla control light, replicate 2: 3114

How did the screen score Uba1 (Ubiquitin activating enzyme 1) [DRSC07567]?
firefly reporter light, replicate 1: 11577; Renilla control light, replicate 1: 2464

For ppan (peter pan) [DRSC17030], what was measured?
firefly reporter light, replicate 1: 17043; Renilla control light, replicate 1: 4876
